In US20260166113A1, “COMPOSITIONS AND METHODS FOR TREATING RENAL CANCER” (The Regents of the University of Michigan, priority 2022, published 2026):
At least one structure is not confirmed: it was looked up by name or label, or the drawing left a doubt.

Experiments:
[1] = tested on: renal cancer cell models (786-0, 769-P, A-498, Caki-1, Caki-2); assay: Kinase inhibitor cell growth assay (MTS), IC50; type: cell-based; conditions: RCC cell lines
[2] = tested on: 5 RCC cell lines (786-0, 769-P, A-498, Caki-1, Caki-2); assay: Kinase inhibition, DIA-MS phosphoproteome of treated RCC cell lines; type: cell-based; conditions: treated at calculated IC50 for 1.5 hours
Experimental: For in vitro experiments assessing the impact of select kinase inhibition on renal cancer cell models (786-0, 769-P, A-498, Caki-1, and Caki-2), the kinase inhibitors, Adaversotib, Everolimus, Sapanisterib, Gefitinib, and Trametinib were dissolved in dimethyl sulfoxide (DMSO) and subjected to sonication in a water bath at room temperature. Following an assessment of individual cell line growth rates to enable calculation of half maximal inhibitory concentration (IC50), cells were seeded in triplicate at concentrations of either 1,000 cells/well (786-0, 769-P, A-498, Caki-2) or 10,000 cells/well (Caki-1). […] Cell growth was measured on day 1 (kinase inhibitor treatment), day 4, and day 6 using the colorimetric CellTiter 96® Aqueous One Cell Proliferation Solution Assay (MTS) following the manufacturer's instructions. IC50 for each cell line in response to single kinase inhibitor exposure was determined by plotting inhibitor concentration against percent activity relative to DMSO-treated controls and calculating the x-intercept of the linear logarithmic trend line. […] Cells were then treated with kinase inhibitors at calculated IC50 values for 1.5 hours. […]
Analysis of the DIA data from the kinase inhibitor study (whole proteome and phosphopeptide enriched data) was performed as described above. […] The whole proteome dataset table contained quantification for 7654 genes.

[3] = tested on: metastatic RCC; conditions: everolimus versus sunitinib; literature ref 85; cited from earlier work

| SMILES | IC50 for inducing death, compared to other inhibitors [1] | response among the five kinase inhibitors (phosphorylation of downstream targeted substrates) [2] | phosphorylation of signaling-related downstream substrates ([2]; DIA-MS) | therapeutic value / response in metastatic RCC [3] |
| --- | --- | --- | --- | --- |
| CC(=O)Nc1cccc(-n2c(=O)n(C3CC3)c(=O)c3c(Nc4ccc(I)cc4F)n(C)c(=O)c(C)c32)c1 [Trametinib] | low IC50 | showed better responses | reduced phosphorylation of both MAPK1 and MAPK3 |  |
| CCN(CC)CCNC(=O)c1c(C)[nH]c(/C=C2\C(=O)Nc3ccc(F)cc32)c1C [sunitinib] |  |  |  | showed greater therapeutic value |
